Results deposited as PubChem BioAssay AID1508597 (Cure First, 2020)
Purpose: 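Knock-downs altering ovarian cancer cell survival with or without PARP inhibitor rucaparib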 (primary screen). Cells: human ovarian carcinoma lines grown from tumours: OCI-P5x (papillary serous) and OCI-C5x (clear cell). Knock-down reagent: siRNA pool against human genes, 1.25 pmol siRNA per well. Duration: 72 h or 96 h, depending on the cell culture. Challenge: rucaparib 20 µM (about IC30) or vehicle, present until read-out. Read-out: 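ATP luminescence measured at 72 or 96 h according to the culture, then normalised and expressed as percent viability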. Scale: viability, normalised: higher = more viable cells remaining. Active means: 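Active when normalised viability falls below 80 percent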. Calls: active = viability under 80%; inactive = viability 80% or more.
The whole screen tested about 2,100 reagents; below is a part drawn at random. 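Calls flag viability under 80% in either arm, not effects specific to rucaparib; the reference for percent is not stated.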 Entries without a mark were called inactive. No sequences are given here. The record does not give: the 100% reference.

| target gene | rucaparib or vehicle | cell line | technical replicate | viability, normalised (%) |
| --- | --- | --- | --- | --- |
| PTTG2 | Rucaparib | OCI-C5x (clear cell) | 1 | 76.8 (active) |
| PTTG2 | Rucaparib | OCI-C5x (clear cell) | 2 | 54.2 (active) |
| PTTG2 | Rucaparib | OCI-C5x (clear cell) | 3 | 32.4 (active) |
| PTTG2 | Rucaparib | OCI-P5x (serous) | 1 | 36.9 (active) |
| PTTG2 | Rucaparib | OCI-P5x (serous) | 2 | 49 (active) |
| PTTG2 | Rucaparib | OCI-P5x (serous) | 3 | 46.7 (active) |
| PTTG2 | Vehicle | OCI-C5x (clear cell) | 1 | 46.2 (active) |
| PTTG2 | Vehicle | OCI-C5x (clear cell) | 2 | 27.3 (active) |
| PTTG2 | Vehicle | OCI-C5x (clear cell) | 3 | 37.2 (active) |
| PTTG2 | Vehicle | OCI-P5x (serous) | 1 | 59.8 (active) |
| PTTG2 | Vehicle | OCI-P5x (serous) | 2 | 61.4 (active) |
| PTTG2 | Vehicle | OCI-P5x (serous) | 3 | 78.8 (active) |

Sorted by “viability, normalised (%)” (lowest first): some entries from above
| target gene | rucaparib or vehicle | cell line | technical replicate | viability, normalised (%) |
| --- | --- | --- | --- | --- |
| PTTG2 | Vehicle | OCI-C5x (clear cell) | 3 | 37.2 (active) |
| PTTG2 | Vehicle | OCI-P5x (serous) | 1 | 59.8 (active) |

Further entries follow.
| target gene | rucaparib or vehicle | cell line | technical replicate | viability, normalised (%) |
| --- | --- | --- | --- | --- |
| TRIB3 | Rucaparib | OCI-C5x (clear cell) | 1 | 55 (active) |
| TRIB3 | Rucaparib | OCI-C5x (clear cell) | 2 | 46.6 (active) |
| TRIB3 | Rucaparib | OCI-C5x (clear cell) | 3 | 59.7 (active) |
| TRIB3 | Rucaparib | OCI-P5x (serous) | 1 | 86 |
| TRIB3 | Rucaparib | OCI-P5x (serous) | 2 | 58.7 (active) |
| TRIB3 | Rucaparib | OCI-P5x (serous) | 3 | 71.1 (active) |
| TRIB3 | Vehicle | OCI-C5x (clear cell) | 1 | 55 (active) |
| TRIB3 | Vehicle | OCI-C5x (clear cell) | 2 | 41.7 (active) |
| TRIB3 | Vehicle | OCI-C5x (clear cell) | 3 | 48.5 (active) |
| TRIB3 | Vehicle | OCI-P5x (serous) | 1 | 89.3 |
| TRIB3 | Vehicle | OCI-P5x (serous) | 2 | 86.3 |
| TRIB3 | Vehicle | OCI-P5x (serous) | 3 | 44.3 (active) |
